PubChem BioAssay AID1259286 | Sanger Institute – 2017

- Test: 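Kinases whose loss adds to targeted drug killing of colorectal cancer cells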 (primary screen)
- Cell system: NCI-H630 human colorectal cancer cells
- Knock-down reagent: siRNA pool against human genes
- Challenge: anchor drugs BYL719 at 1 µM, cetuximab at 5 µg/ml or trametinib at 10 nM, or DMSO vehicle alone; exposure time not given
- Measured: 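Viability relative to non-targeting pool wells, averaged over replicates, with robust z-score for knock-down alone and a synergy score for each anchor drug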
- Scale: viability z-score, knock-down alone: higher = more viable cells, weaker knock-down effect
- Hit rule: 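a gene is called essential when its knock-down-alone viability robust z-score is below -3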
- Meaning of the calls: active = essential when knocked down alone; inactive = not essential alone
Here is a random part of 794 reagents tested. Over the whole deposit, 17 (2.1%) are marked active. 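Calls use knock-down alone only; synergy above 0.15 marked separately; viability seems capped at control level; exposure time not given.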 Not all columns of the deposit are shown. The record does not give: the amount of reagent, the time to read-out.

no.	gene symbol	viability z-score, knock-down alone	Call
1	PIK3C3	0.464	inactive
2	MAP2K6	0.464	inactive
3	SPHK1	-0.6	inactive
4	TBCK	0.464	inactive
5	MAP4K3	0.211	inactive
6	CDK10	0.414	inactive
7	CALM2	0.464	inactive
8	PDIK1L	0.464	inactive
9	ASPM	-0.437	inactive
10	CMPK1	0.464	inactive
11	PDGFRB	-2.01	inactive
12	PDK2	0.464	inactive
13	MAP3K14	-0.871	inactive
14	STK4	0.464	inactive
15	CDK9	0.464	inactive
16	ELP1	0.464	inactive
17	RBM10	0.464	inactive
18	EPHA8	0.464	inactive
19	PKN2	0.464	inactive
20	PRKAG1	-1.92	inactive
21	KCNH8	0.159	inactive
22	CDK17	0.464	inactive
23	MAP3K20	0.106	inactive

Part of the list above, reformatted:
| gene symbol | viability z-score, knock-down alone | Call |
| --- | --- | --- |
| TBCK | 0.464 | inactive |
| MAP4K3 | 0.211 | inactive |
| CDK10 | 0.414 | inactive |
| CALM2 | 0.464 | inactive |
| PDIK1L | 0.464 | inactive |
| ASPM | -0.437 | inactive |
| CMPK1 | 0.464 | inactive |
| PDGFRB | -2.01 | inactive |
| PDK2 | 0.464 | inactive |
| MAP3K14 | -0.871 | inactive |

Additional reagents follow:
no.	gene symbol	viability z-score, knock-down alone	Call
24	PRAG1	0.464	inactive
25	ETNK1	-0.308	inactive
26	NUP107	-0.912	inactive
27	WEE1	-7.72	active
28	CAMK1	0.464	inactive
29	RPS6KA6	0.464	inactive
30	MOK	-0.909	inactive
31	CHUK	-0.368	inactive
32	DGKH	0.464	inactive
33	GK2	0.464	inactive
34	CSNK1G3	0.464	inactive
35	MYLK3	-0.569	inactive
36	MOS	-0.177	inactive
37	EIF2AK2	0.438	inactive
38	PRKCA	-1.47	inactive
39	RIPK1	0.464	inactive
40	CALM3	-1.48	inactive
41	PIK3R3	0.464	inactive
42	CDC73	-2.65	inactive
43	ULK2	0.464	inactive
44	CAMK1G	-0.479	inactive
45	FYN	0.464	inactive
46	TGFBR2	0.464	inactive
47	MSR1	0.464	inactive
48	TPD52L3	0.464	inactive
49	STK31	0.464	inactive
50	ADCK2	0.416	inactive
51	PANK1	0.464	inactive
52	GRK4	0.464	inactive
53	STK33	0.464	inactive
54	CUL1	-1.27	inactive
55	PSKH1	0.464	inactive
56	TGFBR3	0.464	inactive
57	MAPKAPK3	-0.144	inactive
58	N4BP2	0.464	inactive
59	STK32C	0.464	inactive
60	CDK5R2	0.464	inactive
61	GCK	0.233	inactive
62	MUSK	0.464	inactive
63	SMC1A	0.464	inactive
